Assay results taken from patent WO2001094586A2 (dated 2001).
These are yes or no findings as the source states them, for the method shown. Some results given as binding are weak or reduced against the parent protein; the word gives no strength.

T1: human gp39 (CD40 ligand), cell-surface (human, UniProt P29965 1-261)
T1 construct: whole, on cells; also called CD154; mgp39
T1 sequence (looked up): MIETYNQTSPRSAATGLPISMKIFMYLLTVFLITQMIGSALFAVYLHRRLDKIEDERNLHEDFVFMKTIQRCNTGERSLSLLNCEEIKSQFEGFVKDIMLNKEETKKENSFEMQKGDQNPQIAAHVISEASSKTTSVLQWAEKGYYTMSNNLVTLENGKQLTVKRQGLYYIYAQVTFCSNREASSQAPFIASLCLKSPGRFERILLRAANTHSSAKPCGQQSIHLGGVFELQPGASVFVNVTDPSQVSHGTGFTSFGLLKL


Legend:
[1] = target: T1, human gp39 (CD40 ligand), cell-surface; test: binding to CHO-gp39 transfectant
[2] = target: T1, human gp39 (CD40 ligand), cell-surface; test: cell ELISA on fixed mgp39-CHO cells
[3] = target: T1, human gp39 (CD40 ligand), cell-surface; test: competition cell ELISA on fixed mgp39-CHO cells; competitor biotin-labelled murine 24-31

Binder	binding [1]	binding [2]	binding [3]
chimeric 24-31 antibody (antibody, V domains shown) VH: EVQLQESGPSLVKPSQTLSLTCSVTGDSITNGFWIWIRKFPGNKLEYMGYISYSGSTYYNPSLKSRISITRDTSQNQFYLQLNSVTTEDTGTYYCACRSYGRTPYYFDFWGQGTTLTVSS VL: DIVMTQSQKFMSTSVGDRVSITCKASQNVITAVAWYQQKPGQSPKLLIYSASNRYTGVPDRFSGSGSGTDFTLTISNMQSEDLADYFCQQYNSYPYTFGGGTKLEIK	binds	binds	binds
murine antibody 24-31 (anti-human gp39 monoclonal antibody) (antibody, V domains shown, also called murine 24-31; anti-gp39 24-31 mAb) VH: EVQLQESGPSLVKPSQTLSLTCSVTGDSITNGFWIWIRKFPGNKLEYMGYISYSGSTYYNPSLKSRISITRDTSQNQFYLQLNSVTTEDTGTYYCACRSYGRTPYYFDFWGQGTTLTVSS VL: DIVMTQSQKFMSTSVGDRVSITCKASQNVITAVAWYQQKPGQSPKLLIYSASNRYTGVPDRFSGSGSGTDFTLTISNMQSEDLADYFCQQYNSYPYTFGGGTKLEIK		binds	binds
